These are yes or no findings as the source states them, for the method shown. In cells and extracts the contact can be indirect. Some results given as binding are weak or reduced against the parent protein; the word gives no strength. For part of these data: Sequences can lack the tags named with a protein.
Columns and labels:
[1] = molecular target: T1, Flag-tagged rat SREBP1c, amino-terminal fragment (1–403 amino acids) (rat) (UniProt P56720); assay: co-IP; Supplementary Fig. 10c, d; legend not shown; immunoprecipitation from cell lysates as in the methods (50 mM Tris-Cl, 100 mM NaCl, 1% NP-40, 5 mM EDTA)
T1 sequence: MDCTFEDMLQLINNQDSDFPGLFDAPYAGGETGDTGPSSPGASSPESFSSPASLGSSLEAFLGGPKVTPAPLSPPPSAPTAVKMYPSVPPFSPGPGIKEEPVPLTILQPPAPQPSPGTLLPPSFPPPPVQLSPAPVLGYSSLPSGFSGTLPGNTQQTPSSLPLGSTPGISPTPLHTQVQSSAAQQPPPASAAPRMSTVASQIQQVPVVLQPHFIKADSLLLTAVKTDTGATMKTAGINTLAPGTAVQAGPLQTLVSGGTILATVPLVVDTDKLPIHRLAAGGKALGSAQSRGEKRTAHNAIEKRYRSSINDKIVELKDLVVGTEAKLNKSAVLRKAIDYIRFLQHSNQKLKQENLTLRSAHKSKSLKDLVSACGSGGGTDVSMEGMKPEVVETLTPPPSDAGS

Chains of the proteins cited; added tags and fusions are not shown.
UniProt O75151: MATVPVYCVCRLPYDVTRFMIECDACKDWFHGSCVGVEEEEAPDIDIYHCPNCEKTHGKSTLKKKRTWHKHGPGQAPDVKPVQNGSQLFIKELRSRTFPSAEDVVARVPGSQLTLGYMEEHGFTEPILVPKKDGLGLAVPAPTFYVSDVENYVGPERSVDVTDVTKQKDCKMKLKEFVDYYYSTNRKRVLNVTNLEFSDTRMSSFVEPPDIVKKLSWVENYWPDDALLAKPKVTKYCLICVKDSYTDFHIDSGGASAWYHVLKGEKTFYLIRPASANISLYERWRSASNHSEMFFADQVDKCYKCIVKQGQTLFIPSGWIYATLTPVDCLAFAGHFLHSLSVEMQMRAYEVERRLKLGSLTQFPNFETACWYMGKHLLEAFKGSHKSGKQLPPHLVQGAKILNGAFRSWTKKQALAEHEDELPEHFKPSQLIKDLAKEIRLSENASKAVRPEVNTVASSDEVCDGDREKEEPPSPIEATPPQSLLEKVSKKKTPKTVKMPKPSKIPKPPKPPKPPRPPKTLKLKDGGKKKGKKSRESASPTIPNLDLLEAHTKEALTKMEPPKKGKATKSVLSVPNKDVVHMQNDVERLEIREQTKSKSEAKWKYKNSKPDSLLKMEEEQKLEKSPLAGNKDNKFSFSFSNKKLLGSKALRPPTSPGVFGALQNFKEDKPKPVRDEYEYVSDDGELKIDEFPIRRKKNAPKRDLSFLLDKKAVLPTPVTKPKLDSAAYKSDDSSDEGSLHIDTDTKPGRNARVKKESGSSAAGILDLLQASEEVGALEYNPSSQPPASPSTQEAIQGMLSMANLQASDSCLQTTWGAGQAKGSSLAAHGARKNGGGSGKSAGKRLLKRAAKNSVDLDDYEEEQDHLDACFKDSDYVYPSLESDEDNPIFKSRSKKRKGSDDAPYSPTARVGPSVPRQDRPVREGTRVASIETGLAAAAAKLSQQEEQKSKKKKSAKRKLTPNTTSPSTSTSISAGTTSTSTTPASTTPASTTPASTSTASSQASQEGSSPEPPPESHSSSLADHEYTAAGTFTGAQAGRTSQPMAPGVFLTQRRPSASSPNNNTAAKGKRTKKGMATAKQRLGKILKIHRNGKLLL

[2] = molecular target: T2, endogenous SREBP1c (sterol regulatory element-binding protein 1c) (human (endogenous in HepG2)) (UniProt P36956); assay: as above
T2 sequence: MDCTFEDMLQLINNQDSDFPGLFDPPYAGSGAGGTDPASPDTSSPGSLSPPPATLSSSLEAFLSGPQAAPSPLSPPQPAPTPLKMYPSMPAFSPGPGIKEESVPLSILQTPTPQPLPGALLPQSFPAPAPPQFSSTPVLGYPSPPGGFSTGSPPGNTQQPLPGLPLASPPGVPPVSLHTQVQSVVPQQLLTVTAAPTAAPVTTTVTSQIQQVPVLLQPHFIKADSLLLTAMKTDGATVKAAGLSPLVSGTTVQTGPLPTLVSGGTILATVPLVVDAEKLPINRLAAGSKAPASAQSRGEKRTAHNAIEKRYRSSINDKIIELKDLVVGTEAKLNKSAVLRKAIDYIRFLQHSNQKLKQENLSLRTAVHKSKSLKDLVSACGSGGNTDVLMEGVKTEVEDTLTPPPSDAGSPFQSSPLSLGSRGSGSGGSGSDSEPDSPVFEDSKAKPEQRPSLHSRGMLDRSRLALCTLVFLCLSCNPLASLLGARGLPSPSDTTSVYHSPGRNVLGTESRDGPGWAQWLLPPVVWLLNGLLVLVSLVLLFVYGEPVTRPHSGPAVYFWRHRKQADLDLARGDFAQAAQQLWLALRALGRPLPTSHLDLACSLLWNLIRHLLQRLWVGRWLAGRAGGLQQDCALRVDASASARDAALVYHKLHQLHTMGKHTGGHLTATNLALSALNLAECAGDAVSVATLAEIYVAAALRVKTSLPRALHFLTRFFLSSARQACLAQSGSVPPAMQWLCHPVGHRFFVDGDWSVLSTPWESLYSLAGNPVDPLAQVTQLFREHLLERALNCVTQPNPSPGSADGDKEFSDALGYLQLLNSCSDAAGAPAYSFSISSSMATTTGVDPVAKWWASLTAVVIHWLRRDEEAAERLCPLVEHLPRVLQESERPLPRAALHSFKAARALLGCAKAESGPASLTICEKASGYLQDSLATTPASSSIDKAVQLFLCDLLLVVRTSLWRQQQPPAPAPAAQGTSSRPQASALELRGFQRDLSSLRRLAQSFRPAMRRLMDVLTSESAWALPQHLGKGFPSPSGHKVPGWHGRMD

[3] = molecular target: T3, SREBP1c-bHLH (256–362 amino acids), Flag/SBP-tagged (rat) (UniProt P56720); assay: pull-down; Flag/SBP-tagged segments purified on streptavidin (SA) affinity beads from lysates of transfected HepG2 or 293T cells after MG132 for 8 h; immunoblotting
T3 sequence: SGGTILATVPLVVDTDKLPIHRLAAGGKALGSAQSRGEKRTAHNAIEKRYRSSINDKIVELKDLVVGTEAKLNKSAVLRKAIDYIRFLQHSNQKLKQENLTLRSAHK

binding [1]: binds
binding [2]: binds
binding [3]: binds
Substance: PHF2 (as used in the SREBP1c interaction experiments) (from UniProt O75151 1-1096)
